Laboratory results taken from patent US20160151519A1 (JOHN HOPKINS UNIVERSITY, published 2016).
These are yes or no findings as the source states them, for the method shown. Some entries that bind do so weakly or less than the wild type. For part of these data: Sequences can lack the tags named with a protein.

The chains behind the UniProt entries cited, without tags or fusion partners. Residues count along the entry.
UniProt P06731, residues 35-685: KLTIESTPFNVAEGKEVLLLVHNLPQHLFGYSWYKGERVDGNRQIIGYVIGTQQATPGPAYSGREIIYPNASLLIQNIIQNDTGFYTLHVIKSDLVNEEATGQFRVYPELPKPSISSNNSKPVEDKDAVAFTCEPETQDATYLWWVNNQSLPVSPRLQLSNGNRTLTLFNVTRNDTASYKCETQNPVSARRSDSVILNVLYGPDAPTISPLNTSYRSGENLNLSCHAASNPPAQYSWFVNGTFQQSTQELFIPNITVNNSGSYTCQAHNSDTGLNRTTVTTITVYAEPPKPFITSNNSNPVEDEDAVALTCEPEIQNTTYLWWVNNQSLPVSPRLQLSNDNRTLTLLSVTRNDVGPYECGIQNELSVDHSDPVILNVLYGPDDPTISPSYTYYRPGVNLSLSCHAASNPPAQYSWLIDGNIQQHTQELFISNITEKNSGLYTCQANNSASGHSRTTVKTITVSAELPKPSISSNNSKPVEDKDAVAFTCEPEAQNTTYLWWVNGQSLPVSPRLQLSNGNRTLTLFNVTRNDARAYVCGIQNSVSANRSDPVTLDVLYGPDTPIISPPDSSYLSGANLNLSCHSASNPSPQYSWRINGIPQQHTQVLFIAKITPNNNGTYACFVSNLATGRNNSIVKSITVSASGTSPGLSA

Tests used:
[1] = biological target: T1, E-selectin on CHO cells stably transfected with cDNA encoding full-length E-selectin (CHO-E) (UniProt P16581); assay: blot rolling assay with CHO-E cells at 0.5 dyn/cm2
T1 sequence (looked up): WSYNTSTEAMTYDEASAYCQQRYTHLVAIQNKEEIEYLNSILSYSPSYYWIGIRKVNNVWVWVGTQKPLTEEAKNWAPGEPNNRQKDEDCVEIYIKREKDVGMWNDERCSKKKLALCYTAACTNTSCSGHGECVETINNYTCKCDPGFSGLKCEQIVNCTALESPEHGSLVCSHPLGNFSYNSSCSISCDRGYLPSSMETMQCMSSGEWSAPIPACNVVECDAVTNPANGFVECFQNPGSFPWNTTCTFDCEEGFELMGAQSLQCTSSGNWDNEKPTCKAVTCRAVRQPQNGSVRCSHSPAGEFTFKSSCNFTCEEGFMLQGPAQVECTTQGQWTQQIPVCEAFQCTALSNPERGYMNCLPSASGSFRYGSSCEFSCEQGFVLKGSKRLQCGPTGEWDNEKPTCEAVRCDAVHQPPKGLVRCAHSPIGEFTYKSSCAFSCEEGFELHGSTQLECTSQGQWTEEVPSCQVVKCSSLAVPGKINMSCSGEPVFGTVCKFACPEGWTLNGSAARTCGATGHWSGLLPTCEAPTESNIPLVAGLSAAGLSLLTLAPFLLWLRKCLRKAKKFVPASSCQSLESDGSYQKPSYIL

[2] = biological target: T2, E-selectin-IgG Fc chimera (human) (UniProt P16581); assay: cell-free flow-based adhesion assay; difference attributed to slower average rolling velocities of the CD44-knockdown CEA microspheres
T2 sequence (looked up): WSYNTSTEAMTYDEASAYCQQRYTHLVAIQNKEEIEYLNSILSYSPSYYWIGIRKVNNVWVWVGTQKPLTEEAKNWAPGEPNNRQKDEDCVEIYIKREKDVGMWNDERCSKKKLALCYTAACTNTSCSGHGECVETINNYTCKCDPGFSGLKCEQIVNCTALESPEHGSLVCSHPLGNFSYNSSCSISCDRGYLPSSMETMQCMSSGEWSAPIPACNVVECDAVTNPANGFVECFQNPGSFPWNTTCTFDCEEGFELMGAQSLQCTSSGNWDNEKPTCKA

[3] = biological target: T2, E-selectin-IgG Fc chimera (human); assay: cell-free flow-based adhesion assay, CEA-coated microspheres over selectin substrates

Measured: binding

carcinoembryonic antigen (CEA) immunopurified from LS174T colon carcinoma cell lysate (from UniProt P06731 35-685) (ligand)
binds: all assays above
